Values from PubChem BioAssay AID1259308 (NCATS, 2017).
Here is an unselected part of about 59,000 reagents. Of all reagents, about 1,510 (2.6%) were called active. 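Calls use total luciferase alone and ignore viability, so some active siRNAs may act by altering cell number.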 Reagents against one gene are numbered here. Not all columns of the deposit are shown.

- Test: 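Candidate targets for better recombinant protein yield in mammalian cells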 (primary screen)
- Cell system: human HEK293 embryonic kidney cells stably expressing firefly luciferase (HEK-CMV-Luc2-Hygro)
- Reagent: single siRNA against human genes, 0.8 pmol siRNA per well
- Time to read-out: 72 h
- Measurement: 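Luciferase light (ONE-Glo) measured on one replicate plate set and viability (CellTiter-Glo) on the other, scaled to a negative control siRNA, with robust z-scores and luciferase per cell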
- Scale: total luciferase, z-score: higher = more reporter protein produced
- Call rule: 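An siRNA counts as active if its total luciferase robust z-score exceeds 3; genes with two or more such siRNAs out of three were retested with fresh siRNAs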
- Meaning of the calls: active = raised luciferase; inactive = no rise

| target | reagent no. | total luciferase, z-score | call |
| --- | --- | --- | --- |
| FGFRL1 (fibroblast growth factor receptor like 1) | 1 | 0.646 | inactive |
| FGFRL1 (fibroblast growth factor receptor like 1) | 2 | 0.624 | inactive |
| FGFRL1 (fibroblast growth factor receptor like 1) | 3 | 1.93 | inactive |
| CPLANE1 (ciliogenesis and planar polarity effector complex subunit 1) | 1 | -0.232 | inactive |
| CPLANE1 (ciliogenesis and planar polarity effector complex subunit 1) | 2 | -0.188 | inactive |
| CPLANE1 (ciliogenesis and planar polarity effector complex subunit 1) | 3 | 0.512 | inactive |
| ZNF726P1 (zinc finger protein 726 pseudogene 1) | 1 | -0.491 | inactive |
| ZNF726P1 (zinc finger protein 726 pseudogene 1) | 2 | 0.654 | inactive |
| ZNF726P1 (zinc finger protein 726 pseudogene 1) | 3 | -1.69 | inactive |
| UGT1A10 (UDP glucuronosyltransferase family 1 member A10) | 1 | -0.0689 | inactive |
| UGT1A10 (UDP glucuronosyltransferase family 1 member A10) | 2 | 2.21 | inactive |
| UGT1A10 (UDP glucuronosyltransferase family 1 member A10) | 3 | -0.672 | inactive |
| CNTLN (centlein) | 1 | -0.629 | inactive |
| CNTLN (centlein) | 2 | -0.88 | inactive |
| CNTLN (centlein) | 3 | 0.0538 | inactive |
| PCDH9 (protocadherin 9) | 1 | -0.413 | inactive |
| PCDH9 (protocadherin 9) | 2 | -1.14 | inactive |
| PCDH9 (protocadherin 9) | 3 | -0.479 | inactive |
| OAT (ornithine aminotransferase) | 1 | -0.121 | inactive |
| OAT (ornithine aminotransferase) | 2 | 0.944 | inactive |
| OAT (ornithine aminotransferase) | 3 | 1.74 | inactive |
| DENND10P1 (DENND10 pseudogene 1) | 1 | -0.779 | inactive |
| DENND10P1 (DENND10 pseudogene 1) | 2 | -0.0825 | inactive |
| DENND10P1 (DENND10 pseudogene 1) | 3 | 0.659 | inactive |
| LGALS2 (galectin 2) | 1 | -0.174 | inactive |
| LGALS2 (galectin 2) | 2 | -0.7 | inactive |
| LGALS2 (galectin 2) | 3 | -2.77 | inactive |
| OR5W2 (olfactory receptor family 5 subfamily W member 2) | 1 | -0.134 | inactive |
| OR5W2 (olfactory receptor family 5 subfamily W member 2) | 2 | -2.15 | inactive |
| OR5W2 (olfactory receptor family 5 subfamily W member 2) | 3 | 2.09 | inactive |
| KIF17 (kinesin family member 17) | 1 | -0.839 | inactive |
| KIF17 (kinesin family member 17) | 2 | -0.191 | inactive |
| KIF17 (kinesin family member 17) | 3 | -0.025 | inactive |
| HTRA2 (HtrA serine peptidase 2) | 1 | -0.145 | inactive |
| HTRA2 (HtrA serine peptidase 2) | 2 | 0.122 | inactive |
| HTRA2 (HtrA serine peptidase 2) | 3 | 0.818 | inactive |
| TMEM94 (transmembrane protein 94) | 1 | 0.503 | inactive |
| TMEM94 (transmembrane protein 94) | 2 | 0.702 | inactive |
| TMEM94 (transmembrane protein 94) | 3 | -0.0167 | inactive |
| COL15A1 (collagen type XV alpha 1 chain) | 1 | -0.0919 | inactive |
| COL15A1 (collagen type XV alpha 1 chain) | 2 | 0.0645 | inactive |
| COL15A1 (collagen type XV alpha 1 chain) | 3 | 1.49 | inactive |
| COMMD5 (COMM domain containing 5) | 1 | -0.974 | inactive |
| COMMD5 (COMM domain containing 5) | 2 | 0.192 | inactive |
| COMMD5 (COMM domain containing 5) | 3 | 0.402 | inactive |
| DMTN (dematin actin binding protein) | 1 | -0.414 | inactive |
| DMTN (dematin actin binding protein) | 2 | 0.0954 | inactive |
| DMTN (dematin actin binding protein) | 3 | 2.8 | inactive |
| SART3 (spliceosome associated factor 3, U4/U6 recycling protein) | 1 | 1.63 | inactive |
| SART3 (spliceosome associated factor 3, U4/U6 recycling protein) | 2 | -0.143 | inactive |
| SART3 (spliceosome associated factor 3, U4/U6 recycling protein) | 3 | 0.719 | inactive |
| TXNL1 (thioredoxin like 1) | 1 | -0.158 | inactive |
| TXNL1 (thioredoxin like 1) | 2 | 0.266 | inactive |
| TXNL1 (thioredoxin like 1) | 3 | -0.763 | inactive |
| ARHGEF19 (Rho guanine nucleotide exchange factor 19) | 1 | -0.534 | inactive |
| ARHGEF19 (Rho guanine nucleotide exchange factor 19) | 2 | 3.63 | active |
| ARHGEF19 (Rho guanine nucleotide exchange factor 19) | 3 | 0.804 | inactive |

Copied from the listing for reference:
| target | reagent no. | total luciferase, z-score | call |
| --- | --- | --- | --- |
| DENND10P1 (DENND10 pseudogene 1) | 1 | -0.779 | inactive |
| DENND10P1 (DENND10 pseudogene 1) | 2 | -0.0825 | inactive |
| DENND10P1 (DENND10 pseudogene 1) | 3 | 0.659 | inactive |
| LGALS2 (galectin 2) | 1 | -0.174 | inactive |
| LGALS2 (galectin 2) | 2 | -0.7 | inactive |
| LGALS2 (galectin 2) | 3 | -2.77 | inactive |
| OR5W2 (olfactory receptor family 5 subfamily W member 2) | 1 | -0.134 | inactive |
| OR5W2 (olfactory receptor family 5 subfamily W member 2) | 2 | -2.15 | inactive |
| OR5W2 (olfactory receptor family 5 subfamily W member 2) | 3 | 2.09 | inactive |
| KIF17 (kinesin family member 17) | 1 | -0.839 | inactive |
